# In the supplement of paper PMC11732987, “Enantioselective OTUD7B fragment discovery through chemoproteomics screening and high-throughput optimisation” (Communications Chemistry, 2025):
# Chains of the proteins cited; added tags and fusions are not shown. Lines headed by an entry give the natural chain unless they say otherwise; changes in a name come on top. Residues count along the entry.
# UniProt Q03001, 7508-7539: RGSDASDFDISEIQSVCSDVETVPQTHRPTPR
# UniProt Q14204, whole entry, looked up: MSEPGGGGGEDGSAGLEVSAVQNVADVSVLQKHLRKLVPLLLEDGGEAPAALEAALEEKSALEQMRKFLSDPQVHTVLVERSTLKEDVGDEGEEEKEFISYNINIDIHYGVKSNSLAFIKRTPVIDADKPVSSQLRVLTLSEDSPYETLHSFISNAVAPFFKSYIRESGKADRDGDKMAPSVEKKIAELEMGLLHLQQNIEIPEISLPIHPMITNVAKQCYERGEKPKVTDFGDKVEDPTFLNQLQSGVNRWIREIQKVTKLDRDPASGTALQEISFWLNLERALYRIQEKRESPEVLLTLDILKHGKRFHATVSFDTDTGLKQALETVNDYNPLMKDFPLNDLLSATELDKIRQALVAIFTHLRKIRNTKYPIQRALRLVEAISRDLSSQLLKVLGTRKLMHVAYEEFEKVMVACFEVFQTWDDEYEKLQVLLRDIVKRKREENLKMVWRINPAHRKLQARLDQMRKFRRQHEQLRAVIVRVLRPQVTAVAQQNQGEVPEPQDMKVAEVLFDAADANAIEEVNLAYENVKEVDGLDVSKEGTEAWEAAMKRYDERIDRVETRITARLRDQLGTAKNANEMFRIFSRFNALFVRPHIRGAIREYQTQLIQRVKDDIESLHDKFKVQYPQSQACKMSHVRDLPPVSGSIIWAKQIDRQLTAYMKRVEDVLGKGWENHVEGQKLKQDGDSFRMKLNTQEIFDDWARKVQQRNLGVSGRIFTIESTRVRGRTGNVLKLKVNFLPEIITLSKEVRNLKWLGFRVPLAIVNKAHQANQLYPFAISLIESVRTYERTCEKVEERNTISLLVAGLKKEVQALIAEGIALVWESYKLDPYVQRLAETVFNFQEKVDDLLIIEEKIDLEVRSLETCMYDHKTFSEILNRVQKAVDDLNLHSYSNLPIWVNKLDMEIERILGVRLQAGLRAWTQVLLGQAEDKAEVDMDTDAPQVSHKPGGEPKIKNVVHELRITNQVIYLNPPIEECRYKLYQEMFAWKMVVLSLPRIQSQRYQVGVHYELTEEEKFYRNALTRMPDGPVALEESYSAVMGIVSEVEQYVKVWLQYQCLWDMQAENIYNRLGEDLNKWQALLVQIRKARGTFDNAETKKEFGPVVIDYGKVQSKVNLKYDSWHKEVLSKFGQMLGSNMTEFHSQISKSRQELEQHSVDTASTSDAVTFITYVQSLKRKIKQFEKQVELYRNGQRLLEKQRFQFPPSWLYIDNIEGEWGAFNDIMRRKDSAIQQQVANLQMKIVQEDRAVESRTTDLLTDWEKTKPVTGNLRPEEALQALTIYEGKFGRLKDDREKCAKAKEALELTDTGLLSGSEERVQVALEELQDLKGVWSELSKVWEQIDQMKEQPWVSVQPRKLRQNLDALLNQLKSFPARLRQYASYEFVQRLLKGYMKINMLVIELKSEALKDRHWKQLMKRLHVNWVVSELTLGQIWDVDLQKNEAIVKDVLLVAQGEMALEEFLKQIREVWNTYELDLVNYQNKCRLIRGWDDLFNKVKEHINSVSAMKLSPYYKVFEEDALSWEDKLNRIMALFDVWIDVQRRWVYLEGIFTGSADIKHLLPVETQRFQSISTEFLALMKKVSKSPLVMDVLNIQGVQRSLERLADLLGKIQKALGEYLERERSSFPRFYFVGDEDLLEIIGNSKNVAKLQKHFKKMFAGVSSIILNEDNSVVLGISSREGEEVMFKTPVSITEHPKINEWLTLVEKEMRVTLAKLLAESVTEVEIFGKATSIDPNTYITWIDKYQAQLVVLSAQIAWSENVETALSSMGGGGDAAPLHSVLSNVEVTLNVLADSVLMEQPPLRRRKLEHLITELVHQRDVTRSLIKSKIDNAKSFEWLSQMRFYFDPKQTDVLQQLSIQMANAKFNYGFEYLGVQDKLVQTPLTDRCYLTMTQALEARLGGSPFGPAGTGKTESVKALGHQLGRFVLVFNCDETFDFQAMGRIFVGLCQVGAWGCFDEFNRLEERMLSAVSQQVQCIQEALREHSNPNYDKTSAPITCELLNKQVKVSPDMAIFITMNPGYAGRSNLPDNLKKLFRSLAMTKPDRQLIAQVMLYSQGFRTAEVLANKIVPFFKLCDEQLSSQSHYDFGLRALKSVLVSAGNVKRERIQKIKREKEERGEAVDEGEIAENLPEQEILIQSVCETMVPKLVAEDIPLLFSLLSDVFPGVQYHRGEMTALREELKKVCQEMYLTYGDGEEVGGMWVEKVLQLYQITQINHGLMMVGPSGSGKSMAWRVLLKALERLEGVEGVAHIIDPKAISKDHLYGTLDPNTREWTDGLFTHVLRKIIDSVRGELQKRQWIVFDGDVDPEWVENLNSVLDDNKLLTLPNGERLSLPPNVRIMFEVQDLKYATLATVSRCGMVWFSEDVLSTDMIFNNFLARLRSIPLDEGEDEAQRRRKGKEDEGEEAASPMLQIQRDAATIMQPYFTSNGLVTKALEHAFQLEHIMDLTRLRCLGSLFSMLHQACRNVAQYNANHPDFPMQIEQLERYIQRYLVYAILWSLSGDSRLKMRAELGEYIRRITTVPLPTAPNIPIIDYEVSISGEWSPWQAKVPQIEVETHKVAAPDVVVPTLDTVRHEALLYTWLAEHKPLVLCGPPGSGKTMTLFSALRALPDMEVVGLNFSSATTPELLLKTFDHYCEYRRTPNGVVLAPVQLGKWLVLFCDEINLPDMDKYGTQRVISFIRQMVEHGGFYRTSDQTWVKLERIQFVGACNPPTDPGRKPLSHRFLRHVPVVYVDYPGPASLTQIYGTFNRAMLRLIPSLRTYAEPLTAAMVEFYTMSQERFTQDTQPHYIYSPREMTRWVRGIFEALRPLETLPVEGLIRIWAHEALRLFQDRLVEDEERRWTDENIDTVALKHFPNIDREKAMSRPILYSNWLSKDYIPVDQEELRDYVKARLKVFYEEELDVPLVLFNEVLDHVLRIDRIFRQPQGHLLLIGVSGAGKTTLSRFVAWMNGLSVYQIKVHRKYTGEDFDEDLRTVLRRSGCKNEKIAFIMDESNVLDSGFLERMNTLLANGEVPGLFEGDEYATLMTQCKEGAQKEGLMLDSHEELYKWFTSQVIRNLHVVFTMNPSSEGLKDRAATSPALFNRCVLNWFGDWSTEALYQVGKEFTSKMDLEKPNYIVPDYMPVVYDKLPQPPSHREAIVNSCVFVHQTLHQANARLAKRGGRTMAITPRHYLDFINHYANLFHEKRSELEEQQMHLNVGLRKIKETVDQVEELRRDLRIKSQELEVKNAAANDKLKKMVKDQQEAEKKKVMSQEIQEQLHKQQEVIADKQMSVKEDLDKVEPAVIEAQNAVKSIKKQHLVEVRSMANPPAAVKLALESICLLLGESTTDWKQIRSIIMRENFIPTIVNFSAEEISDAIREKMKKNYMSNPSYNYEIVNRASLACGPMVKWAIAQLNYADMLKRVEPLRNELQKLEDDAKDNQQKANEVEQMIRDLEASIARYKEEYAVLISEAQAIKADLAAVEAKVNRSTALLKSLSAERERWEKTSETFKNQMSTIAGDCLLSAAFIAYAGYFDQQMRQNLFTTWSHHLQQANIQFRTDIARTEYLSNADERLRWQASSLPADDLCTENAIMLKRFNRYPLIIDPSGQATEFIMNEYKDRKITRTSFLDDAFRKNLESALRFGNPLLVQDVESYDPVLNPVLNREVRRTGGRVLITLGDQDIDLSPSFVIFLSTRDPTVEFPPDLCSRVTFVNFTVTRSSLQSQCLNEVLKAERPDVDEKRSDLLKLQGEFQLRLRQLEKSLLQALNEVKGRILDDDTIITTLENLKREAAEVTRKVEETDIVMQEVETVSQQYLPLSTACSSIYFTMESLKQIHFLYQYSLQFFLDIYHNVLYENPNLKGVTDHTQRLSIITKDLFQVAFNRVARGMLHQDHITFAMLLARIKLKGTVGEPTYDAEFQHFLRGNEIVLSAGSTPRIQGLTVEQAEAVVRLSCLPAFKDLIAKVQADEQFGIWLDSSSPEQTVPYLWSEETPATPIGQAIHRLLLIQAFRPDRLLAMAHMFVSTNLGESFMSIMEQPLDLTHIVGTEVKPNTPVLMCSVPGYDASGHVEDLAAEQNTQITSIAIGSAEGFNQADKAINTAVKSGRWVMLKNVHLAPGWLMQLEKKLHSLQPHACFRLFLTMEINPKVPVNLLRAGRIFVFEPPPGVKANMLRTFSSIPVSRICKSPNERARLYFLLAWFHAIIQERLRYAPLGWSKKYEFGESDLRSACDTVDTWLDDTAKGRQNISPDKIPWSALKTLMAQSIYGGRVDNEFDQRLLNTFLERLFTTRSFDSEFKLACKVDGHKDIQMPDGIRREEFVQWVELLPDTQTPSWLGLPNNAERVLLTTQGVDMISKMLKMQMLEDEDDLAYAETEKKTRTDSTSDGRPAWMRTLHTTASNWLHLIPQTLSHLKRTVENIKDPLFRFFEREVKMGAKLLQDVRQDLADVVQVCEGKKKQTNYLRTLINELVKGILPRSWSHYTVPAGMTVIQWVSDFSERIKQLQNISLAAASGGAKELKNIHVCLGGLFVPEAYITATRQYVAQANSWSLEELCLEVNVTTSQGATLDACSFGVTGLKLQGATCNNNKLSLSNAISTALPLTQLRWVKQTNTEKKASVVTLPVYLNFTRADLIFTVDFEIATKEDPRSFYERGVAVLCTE
# UniProt Q5VYK3: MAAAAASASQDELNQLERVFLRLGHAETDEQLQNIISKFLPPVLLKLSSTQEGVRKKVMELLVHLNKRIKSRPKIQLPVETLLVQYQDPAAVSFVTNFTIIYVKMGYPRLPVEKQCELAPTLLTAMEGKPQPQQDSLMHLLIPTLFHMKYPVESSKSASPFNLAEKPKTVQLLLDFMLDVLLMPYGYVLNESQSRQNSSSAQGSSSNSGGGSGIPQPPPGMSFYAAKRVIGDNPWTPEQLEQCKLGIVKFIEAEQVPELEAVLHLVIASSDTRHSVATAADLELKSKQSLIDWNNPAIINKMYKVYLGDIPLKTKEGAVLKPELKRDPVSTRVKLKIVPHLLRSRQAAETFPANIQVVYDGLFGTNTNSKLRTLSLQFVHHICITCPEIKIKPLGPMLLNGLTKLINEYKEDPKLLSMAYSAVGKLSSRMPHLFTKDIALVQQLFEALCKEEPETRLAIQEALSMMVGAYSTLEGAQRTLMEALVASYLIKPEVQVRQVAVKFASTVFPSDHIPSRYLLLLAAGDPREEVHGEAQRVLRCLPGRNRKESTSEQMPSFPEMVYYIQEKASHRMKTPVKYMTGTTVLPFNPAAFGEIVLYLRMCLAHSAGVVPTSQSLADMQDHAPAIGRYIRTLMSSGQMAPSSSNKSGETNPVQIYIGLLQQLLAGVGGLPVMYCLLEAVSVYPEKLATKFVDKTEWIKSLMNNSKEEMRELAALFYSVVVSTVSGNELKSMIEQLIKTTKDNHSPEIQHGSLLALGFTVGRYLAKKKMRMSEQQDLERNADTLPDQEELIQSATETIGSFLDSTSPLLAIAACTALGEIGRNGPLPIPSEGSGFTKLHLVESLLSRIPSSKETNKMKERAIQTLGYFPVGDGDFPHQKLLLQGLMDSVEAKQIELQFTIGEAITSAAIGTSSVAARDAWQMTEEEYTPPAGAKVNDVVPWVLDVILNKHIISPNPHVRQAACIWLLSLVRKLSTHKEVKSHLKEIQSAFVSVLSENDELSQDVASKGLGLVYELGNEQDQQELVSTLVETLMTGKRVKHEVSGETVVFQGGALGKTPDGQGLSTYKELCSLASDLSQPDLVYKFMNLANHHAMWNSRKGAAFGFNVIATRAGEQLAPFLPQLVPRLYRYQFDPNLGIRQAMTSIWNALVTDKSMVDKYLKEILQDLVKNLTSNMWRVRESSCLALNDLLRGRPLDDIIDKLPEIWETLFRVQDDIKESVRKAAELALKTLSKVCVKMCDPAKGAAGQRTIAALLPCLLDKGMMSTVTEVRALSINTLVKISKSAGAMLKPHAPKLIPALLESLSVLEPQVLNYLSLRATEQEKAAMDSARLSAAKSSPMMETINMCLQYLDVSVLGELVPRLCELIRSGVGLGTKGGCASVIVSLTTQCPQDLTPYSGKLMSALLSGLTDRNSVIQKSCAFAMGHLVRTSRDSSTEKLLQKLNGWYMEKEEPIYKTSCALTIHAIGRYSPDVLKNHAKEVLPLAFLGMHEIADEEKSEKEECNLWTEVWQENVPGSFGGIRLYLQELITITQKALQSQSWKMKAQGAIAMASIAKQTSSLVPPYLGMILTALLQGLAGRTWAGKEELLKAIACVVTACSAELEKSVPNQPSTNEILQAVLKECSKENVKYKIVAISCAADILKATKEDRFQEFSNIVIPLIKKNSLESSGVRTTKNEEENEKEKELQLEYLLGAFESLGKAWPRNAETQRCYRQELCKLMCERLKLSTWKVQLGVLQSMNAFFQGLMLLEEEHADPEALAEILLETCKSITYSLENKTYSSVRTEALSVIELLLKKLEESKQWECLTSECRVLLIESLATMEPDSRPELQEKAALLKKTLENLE
# The list shows a part of the results. The data scatter; read single values as rough.
# Columns and labels:
# [1] = compound: ClCC(=O)N[C@@H]1CCCc2ccccc12; experiment: log2 mean competition ratio of IA-DTB cysteine labelling (DMSO/compound) (log2 ratio); higher = stronger cysteine engagement by compound; conditions: treatment time: 4 h, cell line lysate: HEK293T
# Experimental: (§1)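 IA-DTB competitive cysteine chemoproteomics in HEK293T RIPA lysate. Lysates were treated with compound 29 or 30 at 50 or 200 µM for 4 h, then IA-DTB (500 µM, 1 h), trypsin-digested, NeutrAvidin-enriched and analysed by diaPASEF. Competition ratio = intensity DMSO / intensity compound (n=4 treated, n=64 DMSO); binding: mean log2 CR ≥ 1 and p ≤ 0.05 plus QC filters. Target is the cysteine site.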
# [2] = compound: ClCC(=O)N[C@H]1CCCc2ccccc12; experiment: as above; conditions: treatment time: 4 h, cell line lysate: HEK293T
# Experimental: as §1
Target,log2 mean competition ratio ([1]; 50 µM),log2 mean competition ratio ([1]; 200 µM),log2 mean competition ratio ([2]; 50 µM),log2 mean competition ratio ([2]; 200 µM)
DST C7524 (UniProt Q03001),0.271,0.089,0.168,-0.283
EBF3 C264,-0.222,0.459,-0.3,0.262
DYNC1H1 C3389 (UniProt Q14204),0.0296,-0.228,0.26,-0.107
DUSP11 C211,0.0255,-0.0883,-0.0115,0.072
EDC4 C838 (UniProt Q6P2E9),-0.0299,0.0204,-0.213,0.0869
ECPAS C1070 (UniProt Q5VYK3),-0.119,-0.234,-0.139,-0.209
